Assay results as given in article PMC4405576, “The Crystal Structure and Small-Angle X-Ray Analysis of CsdL/TcdA Reveal a New tRNA Binding Motif in the MoeB/E1 Superfamily” (PLoS ONE, 2015).
These are yes or no findings as the source states them, for the method shown.

Molecular target: T1, CsdE, SufE-like sulfur acceptor (E. coli), P0AGF2
T1 chain: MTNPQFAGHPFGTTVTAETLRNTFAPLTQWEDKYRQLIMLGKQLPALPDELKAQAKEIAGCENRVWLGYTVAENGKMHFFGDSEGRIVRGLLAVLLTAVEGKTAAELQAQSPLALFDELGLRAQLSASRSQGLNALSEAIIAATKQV
Assay: cross-linking; BMOE (8.0 Å, sulfhydryl to sulfhydryl) 0.2 mM, 1 h, 25°C; CsdE and TcdA 1:1 (80 μM) in 20 mM sodium/potassium phosphate, 450 mM NaCl, 0.5 mM EDTA, pH 7.4, after 1 mM TCEP; controls with CsdE or TcdA alone; SDS-PAGE; both purified
Conditions: remark: other sources report otherwise

binding: no binding (tested: 80 μM)
B1: CsdE, SufE-like sulfur acceptor, P0AGF2 1-147 (protein)
chain: T1 chain
